These results are taken from paper PMC10883267 (2023).

Protein sequences, listed by entry. Tags and fused reporters are not part of them. Residues count along the entry.
UniProt Q13541, residues 50-83: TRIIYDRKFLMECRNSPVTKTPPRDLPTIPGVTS

Like-named read-outs stand apart in the source and are kept apart here. No constants are given. Whether binding was seen depends on the method and setting. Binding seen in cells or lysates may run through a third protein. For some of these results: Binding can be weak; no strength is given.

What all share (assay): pull-down; His- and MBP-tagged eIF4E from E. coli lysate held on HisPur Ni-NTA magnetic beads (1 h, 4 °C), then soluble fraction of E. coli lysate with MBP-tagged 4EBM (1 h, 4 °C); 50 mM Tris-HCl pH 7.5, 100 mM NaCl, 1 mM DTT, 20 mM imidazole, 0.01% Tween-20; eluted with 500 mM imidazole; SDS-PAGE, Coomassie, quantified with Fiji
Assay [1] concerns the target mouse eIF4E1B (63-244) with Trp101 mutated (dorsal surface mutant) (mouse) (UniProt Q3UTA9).
For assay [2], the target named is mouse eIF4E1B (63-244) with residues of the lateral surface mutated (mouse) (UniProt Q3UTA9).
The target of assay [3] is T1, human eIF4E1B (60-242) (human) (UniProt A6NMX2).
T1 sequence: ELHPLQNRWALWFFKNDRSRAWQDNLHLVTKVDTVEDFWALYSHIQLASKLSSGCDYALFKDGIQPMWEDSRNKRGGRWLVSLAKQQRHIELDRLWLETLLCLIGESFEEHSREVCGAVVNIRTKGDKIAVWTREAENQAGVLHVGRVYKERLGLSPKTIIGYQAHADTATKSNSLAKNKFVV

In assay [4] the target is T2, mouse eIF4E1B (63-244) (mouse) (UniProt Q3UTA9).
T2 sequence: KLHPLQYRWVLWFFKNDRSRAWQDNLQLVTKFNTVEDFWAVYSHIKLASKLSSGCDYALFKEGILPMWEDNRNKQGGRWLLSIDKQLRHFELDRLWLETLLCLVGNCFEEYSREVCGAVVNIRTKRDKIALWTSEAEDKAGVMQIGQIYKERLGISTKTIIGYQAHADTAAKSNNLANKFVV

The target in assay [5] is zebrafish eIF4E1c (49-230) (zebrafish).
For assay [6], the target named is mouse eIF4E1B (63-244) with Trp101 mutated (dorsal surface mutant) (mouse) (UniProt Q3UTA9). This is another data set of the same source.
Assay [7] deals with mouse eIF4E1B (63-244) with residues of the lateral surface mutated (mouse) (UniProt Q3UTA9). This is another data set of the same source.

“eIF4E-binding motif of human eIF4EBP1 (50-83) (from UniProt Q13541 50-83) (domain or fragment)”: the binding result in assay [1] and in assay [2] was “no binding” throughout.

Turning to “eIF4E-binding motif of human eIF4G (608-647) (domain or fragment)”, the binding entry in assay [3] and in assay [4] was “no binding” throughout.

In the case of PHRYTKEELLDIKELPHSKQRPSCLSEKYDSDGVWDP (domain or fragment, UniProt Q9NRA8 27-63) [eIF4E-binding motif of human eIF4ENIF1 (27-63)], the binding entry in assay [5] was “binds”; in assay [6], “no binding”; in assay [7] it was “binds”.
